These results are taken from PMC10447538.

Amino acid sequences for entries named in this document (tags omitted).
UniProt P08670: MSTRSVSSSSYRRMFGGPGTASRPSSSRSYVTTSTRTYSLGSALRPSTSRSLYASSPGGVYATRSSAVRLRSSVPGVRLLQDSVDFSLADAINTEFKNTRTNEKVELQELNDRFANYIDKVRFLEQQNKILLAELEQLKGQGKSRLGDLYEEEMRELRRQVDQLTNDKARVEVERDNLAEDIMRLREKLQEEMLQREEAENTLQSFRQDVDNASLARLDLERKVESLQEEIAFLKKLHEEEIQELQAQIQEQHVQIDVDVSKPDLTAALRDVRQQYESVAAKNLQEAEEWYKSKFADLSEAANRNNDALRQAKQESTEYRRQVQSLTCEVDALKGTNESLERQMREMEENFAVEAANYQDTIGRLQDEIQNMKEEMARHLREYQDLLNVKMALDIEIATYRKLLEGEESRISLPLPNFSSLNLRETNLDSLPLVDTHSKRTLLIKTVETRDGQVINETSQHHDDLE

The target of this test is T1, Flag-tagged LGSN (lengsin, lens protein with glutamine synthetase domain) (human) (UniProt Q5TDP6).
T1 sequence: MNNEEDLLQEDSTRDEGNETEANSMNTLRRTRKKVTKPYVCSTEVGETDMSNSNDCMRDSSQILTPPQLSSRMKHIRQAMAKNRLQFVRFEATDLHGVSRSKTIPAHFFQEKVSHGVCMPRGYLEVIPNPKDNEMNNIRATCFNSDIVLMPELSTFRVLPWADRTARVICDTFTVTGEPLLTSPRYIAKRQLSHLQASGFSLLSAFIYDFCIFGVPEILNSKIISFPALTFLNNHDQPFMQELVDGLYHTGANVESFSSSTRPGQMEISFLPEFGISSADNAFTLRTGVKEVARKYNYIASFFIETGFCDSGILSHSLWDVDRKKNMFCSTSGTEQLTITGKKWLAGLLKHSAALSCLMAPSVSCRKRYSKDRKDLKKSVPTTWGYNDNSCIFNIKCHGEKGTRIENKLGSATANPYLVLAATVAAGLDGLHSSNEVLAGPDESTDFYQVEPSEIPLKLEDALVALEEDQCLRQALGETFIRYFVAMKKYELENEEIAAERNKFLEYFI
Kind of test: affinity purification with mass spectrometry; Flag immunoprecipitation from LGSN-overexpressing GES-1 cell lysates; Coomassie-stained band of about 40-55 kDa analysed by protein mass spectrometry; VEC-overexpressing GES-1 cells as negative control.

These are yes or no findings as the source states them, for the method shown. Binding seen in cells or lysates may run through a third protein. Here binding means that the protein was enriched with, or labelled near, the bait; the list need not be complete. Sequences can lack the tags named with a protein.

Turning to vimentin (from UniProt P08670 1-466), the binding entry is reported as “binds”.
